Source: PubChem BioAssay AID743454 (Peter MacCallum Cancer Centre, 2014)
Test: 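Knock-downs lowering viability or raising caspase 3/7 activity in vorinostat-treated resistant cells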 (primary screen). System: human HCT116-VR colon cancer cells, selected for vorinostat resistance. Reagents: siRNA pool against human genes, 40 nM siRNA pool. Time to read-out: vorinostat for 24 h, read-out about 72 h after transfection. Conditions: vorinostat at 2.5 µM final. Measured: 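Two measures, CellTiter-Fluor viability and luminescent caspase 3/7 activity, each as fold change against same-plate mock wells, mean of duplicates, then screen-wide robust z-score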. Direction: viability robust z-score: higher = more viable cells than screen typical; caspase robust z-score: higher = more caspase 3/7 activity than screen typical. Active means: 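a knock-down is a hit when classed RV1 or RV2 for lowered viability, or CA1 or CA2 for caspase activation; those lethal without drug were dropped; hits were retested singly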.
Here is one part, drawn at random, of about 18,000 reagents tested. Of all reagents, 450 (2.5%) got an active call. 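Single biological run; no consistent viability z cut-off exists, so the class columns, not z-scores, define the calls.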 Entries without a mark were called inactive.

target	viability hit class	caspase hit class	viability robust z-score	caspase robust z-score
FOXA1	no change	no change	-1.35	2.12
ISG15	no change	no change	-0.92	-0.7
TRUB2	no change	no change	-0.92	-0.66
ATP2C1	no change	no change	-0.4	2.43
NUAK2	no change	no change	0.71	-0.36
BANK1	no change	no change	-0.14	-0.9
HLA-B	no change	no change	-0.34	5.04
PPIE	no change	no change	0.62	0.4
MMP24	no change	no change	0.46	-0.24
TAGLN2	no change	no change	-0.04	-0.65
CPA5	no change	no change	0.6	0.36
AXIN2	no change	no change	0.88	-0.84
BHMT	no change	no change	-0.6	-0.02
ARMH3	no change	no change	1.02	-0.16
NFIB	no change	no change	0.78	-0.78
NR0B2	no change	no change	0.78	0.64
OR6C3	no change	no change	-2.04	1.38
IGDCC4	no change	no change	0.3	0.36
NPAS1	no change	no change	-0.3	1.48
POMGNT1	no change	no change	-0.01	0.78
AP3S2	no change	no change	0.4	-0.02
PLPPR1	no change	no change	-0.2	-0.99
OGG1	no change	no change	-1.65	0.45
GOLGA6L9	no change	no change	-0.4	-0.2
RCN1	no change	no change	-0.14	-0.22
ST6GALNAC6	no change	no change	-0.68	0.01
SLC24A4	no change	no change	-1.23	-0.45
RAB3IL1	no change	no change	0.93	0.77
JPH4	no change	no change	0.22	2.48
OR5A1	no change	no change	1.08	0.18
LY6K	no change	no change	2.28	-0.08
TRIM59	no change (active)	CA2 (caspase activation)	-3.25	6.57
FLT3	no change	no change	0.76	0.35
OR8B3	no change	no change	0.71	-0.52
CASZ1	no change	no change	0.9	1.69
CALCOCO1	no change	no change	-3.42	0.28
EIF4A2	no change	no change	0.46	-0.64
TIGD4	no change	no change	-0.6	-0.79
KCNJ8	no change	no change	0.64	0.16
